# The whole screen tested about 400,000 compounds, of which about 13,000 (3.2%) were called active. Inconclusive means that the source gave no clear call. Such entries were picked first, then a sample of the others. Calls come from the whole dose curve; as a rule, active = well fitted cell-killing curve with a large enough effect; inconclusive = small, poorly fitted or top-dose-only effect, or effect the other way; inactive = flat fitted curve, though single readings scatter. A potency beside an inconclusive call is a rough fit, not a confirmed value.
# Assay: qHTS assay for MDR1-selective chemotherapeutics: Primary screen using the drug-selected MDR subline cells KB-V1; note: nearly all actives have a fitted effect of over 60% in size
# Settings: KB-V1 MDR cells viability, CellTiter-Glo, 72 h; activity change, negative = cytotoxicity: at 46.1 µM (top of the series)
# Outline: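 KB-V1 cells (P-gp-expressing MDR subline of KB-3-1) in phenol-red-free DMEM with 10% FBS were exposed to library compounds over a concentration series for 72 h at 37 degrees C. Viability read by CellTiter-Glo luminescence; concentration-effect curves fitted after normalization.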
# % is set by controls: 0 for no effect and ±100 for the full control effect; potency is the fitted concentration of half-maximal effect.
Structure (SMILES),Potency,"activity change, negative = cytotoxicity"
CC(C(=O)NCC(=O)Nc1ccc(F)c(F)c1F)N1CCN(Cc2ccc(C#N)cc2)CC1 (centres undefined),active: 13 µM,
CCOc1cc(CNc2ccc(CNc3ncn[nH]3)cc2)ccc1OCc1ccccc1,active: 18.4 µM,
CCn1c(=O)c(-[n+]2ccccc2)c(O)c2ccccc21,"inconclusive: 29.1 µM [rising, single point]",
COc1cc(-c2nc(C(=O)NCC3CCCO3)cc3c2[nH]c2ccccc23)cc(OC)c1OC (centres undefined),"inconclusive: 18.4 µM [cytotoxic, single point]",
CN(CC(=O)Nc1ccc(F)cc1)c1ccc(S(=O)(=O)N2CCCC2)cn1,"inconclusive: 29.1 µM [cytotoxic, single point]",
CCOC(=O)c1cc(C)nn1-c1nc(Cl)cc(OC)n1,,inactive: -13.4%
CN(C(=O)C1CCCN(c2ncnc3c2nc2n3CCCCC2)C1)c1cccc(Cl)c1 (centres undefined),"inconclusive: 0.58 µM [cytotoxic, full curve, poor fit]",
Cn1c(O)c(N=NC(=O)c2ccccc2O)c2ccccc21,active: 16.4 µM,
Nc1nc(-c2ccccc2)c(C(=O)Nc2ccccc2)s1,,inactive: 7%
Cc1ccc(NC(=O)N2N=C(c3ccc(F)cc3)CC2c2ccc(F)cc2)cc1 (centres undefined),active: 23.1 µM,
CCOC(=O)Nc1cccc2c1-c1ccc([N+](=O)[O-])cc1C2=O,"inconclusive: 16.4 µM [cytotoxic, single point]",
O=C(Nc1cccc(C(F)(F)F)c1)n1cc(-c2ccccn2)c(N2CCOCC2)n1,,inactive: -2.61%
Cc1c(/C=N/NC(N)=O)c2ccccn2c1C(=O)c1ccc(F)cc1,active: 18.4 µM,
Cc1cc(NC(=O)Nc2cccc(Cl)c2)n(-c2ccccn2)n1,"inconclusive: 29.1 µM [cytotoxic, single point]",
COc1ccc(CC(=O)Nc2ccncc2Cl)cc1,,inactive: 6.07%
Cc1cc(C)c2c(c1)-c1c(ssc1=S)C(C)(C)N2C(=O)CSc1nncn1C,active: 23.1 µM,
COc1ccc(C(=O)NC(=S)NNC(=O)CCc2ccccc2)cc1,active: 6.51 µM,
O=C(CCCc1nc2ccccc2s1)NCc1ccc(F)cc1,,inactive: 0%
OCCN=c1cc(-c2ccccc2)oc2ccc(Cl)cc12,active: 16.4 µM,
O=C(NC(c1ccc(-c2ccccc2)cc1)c1cnccn1)C1CCN(Cc2ccc(Cl)c(Cl)c2)CC1 (centres undefined),,inactive: 4.16%
Cc1cc(C)n(Cc2ccc(F)cc2)c(=O)c1C#N,"inconclusive: 16.4 µM [cytotoxic, single point]",
COc1ccc(NCc2nc3ccccc3n2C)cc1,,inactive: -27.3%
CCOc1ccc2c(c1)-c1c(ssc1=S)C(C)(C)N2C(=O)c1ccco1,"inconclusive: 18.4 µM [cytotoxic, single point]",
O=C1Cc2c([nH]c3ccc(Br)cc23)-c2ccccc2N1,"inconclusive: 29.1 µM [cytotoxic, single point]",
CC(C)=CC(=O)O[C@@H]1Cc2cc3ccc(=O)oc3cc2OC1(C)C,"inconclusive: 16.4 µM [cytotoxic, partial curve, poor fit]",

# Complete entries, looked up by structure:
# `COc1cc(-c2nc(C(=O)NCC3CCCO3)cc3c2[nH]c2ccccc23)cc(OC)c1OC` (centres undefined) as listed: Potency: inconclusive: 18.4 µM [cytotoxic, single point]
# `Cc1ccc(NC(=O)N2N=C(c3ccc(F)cc3)CC2c2ccc(F)cc2)cc1` (centres undefined) as listed: Potency: active: 23.1 µM

# The results go on:

Structure (SMILES),Potency,"activity change, negative = cytotoxicity"
C=CCn1c(O)c(N=NC(=S)Nc2cccc(C)c2)c2ccccc21,active: 2.91 µM,
CCn1cc(C(=O)N[C@@H](CCSC)C(=O)NCCCN2CCOCC2)c(=O)c2cc3c(cc21)OCO3,"inconclusive: 18.4 µM [rising, partial curve]",
CSc1ccc(C(=O)C2CCCN(C(=O)c3ccc(C)nc3)C2)cc1 (centres undefined),"inconclusive: 20.6 µM [cytotoxic, single point]",
CCn1c(-c2cc(Cl)ccc2OC)n[nH]c1=S,,inactive: 2.63%
CCc1ccccc1N(CC(=O)NCc1ccco1)C(=O)CCC(=O)Nc1nccs1,,inactive: -14.5%
CCS(=O)(=O)N1CCCC(C(=O)NCCc2ccc(C)cc2)C1 (centres undefined),"inconclusive: 18.4 µM [cytotoxic, single point]",
Cc1cc(C)cc(N=c2c([N+](=O)[O-])nn(-c3ccc4c(c3)OCCO4)n2O)c1,"inconclusive: 29.1 µM [cytotoxic, single point]",
O=C(Nc1ccc(CN2CCOCC2)cc1)c1cc2ccccn2n1,,inactive: -9.21%
COc1ccc(-c2csc3nc(-c4ccccc4OC)oc(=O)c23)cc1,,inactive: 7.66%
O=C(NCc1nnc2c(C(F)(F)F)cc(Cl)cn12)C1CCCC1,,inactive: 16.9%
Cc1ccc(OCC(=O)Nc2ccccc2C(=O)OCc2cc(=O)n3nc(C4CC4)sc3n2)cc1,,inactive: 0%
CCOc1ccc(NC(=O)CNC(=O)c2ccc(OC)c(OC)c2)cc1,"inconclusive: 25.9 µM [cytotoxic, single point]",
OC(c1cc(C(F)(F)F)nc2c(C(F)(F)F)cccc12)C1CCCCN1 (centres undefined),"inconclusive: 29.1 µM [cytotoxic, single point]",
CCN(CC(=O)NC(C)C)Cc1nc2c(Br)cc(Br)cc2c(=O)[nH]1,active: 9.2 µM,
Cc1ccc2nc(/C(C#N)=C/c3cccc(Br)c3)[nH]c2c1,"inconclusive: 18.4 µM [cytotoxic, single point]",
CCOC(=O)N1CCN(C(=O)c2ccccc2NC(=O)COc2ccccc2C)CC1,,inactive: -5.89%
COc1cc(-c2cc(C(=O)Nc3ccc(C)c(S(=O)(=O)N4CCOCC4)c3)c3ccccc3n2)cc(OC)c1OC,,inactive: -6.28%
CCOC(=O)c1ccc(S(=O)(=O)N2CCN(c3nc(-c4ccccc4)nc4ccccc34)CC2)cc1,"inconclusive: 29.1 µM [rising, single point]",
Cc1noc(C)c1CSc1nc2ccccc2s1,,inactive: -14.1%
COc1ccc(N2C(=O)c3ccccc3NC(=O)C2C(=O)NCc2ccco2)cc1 (centres undefined),,inactive: -6.67%
COc1cccc(N=Nc2c(N)[nH][nH]c2=O)c1,active: 18.4 µM,
N#Cc1ccc(CSc2nnc(-c3ccncc3)n2CCc2ccccc2)cc1,"inconclusive: 29.1 µM [cytotoxic, single point]",
O=C(Cc1ccc(Cl)cc1)Nc1ccc(N2CCN(C(=O)c3ccco3)CC2)c(Cl)c1,"inconclusive: 14.6 µM [cytotoxic, partial curve, poor fit]",
COc1ccccc1N(C)S(=O)(=O)c1ccc(Cl)c(C(=O)Nc2ccccc2N2CCOCC2)c1,"inconclusive: 20.6 µM [cytotoxic, single point]",
COc1cc2c(cc1OC)CN(C(=O)Cc1c(F)cccc1Cl)CC2,"inconclusive: 18.4 µM [cytotoxic, single point]",

Structure (SMILES),Potency,"activity change, negative = cytotoxicity"
Cc1cc(NC(=O)CCCN2C(=O)/C(=C/c3ccccc3Cl)SC2=S)no1,active: 20.6 µM,
CSCc1cc(N2CCCC2)nc(-c2ccccc2)n1,"inconclusive: 25.9 µM [cytotoxic, single point]",
Cc1nc2sccn2c1-c1nc(-c2cc3ccccc3o2)cs1,"inconclusive: 20.6 µM [cytotoxic, partial curve, poor fit]",
Cc1ccc(NS(=O)(=O)c2cccc(C(=O)N3CCCCC3)c2)cc1,active: 11.6 µM,
Cc1ccc(NC(=O)C2CCCN(c3ncnc4c3nc3n4CCCCC3)C2)cc1F (centres undefined),"inconclusive: 3.26 µM [cytotoxic, full curve]",
COc1ccccc1C(CC(=O)N1CCCC1)c1ccc2c(c1)OCO2 (centres undefined),"inconclusive: 23.1 µM [cytotoxic, single point]",
Cc1ccsc1CN(C)C(=O)CN1C(=O)NC2(CCCc3ccccc32)C1=O (centres undefined),,inactive: -11.8%
Cc1ccc(N2CCN(C(=O)c3cc(COc4c(C)cccc4C)on3)CC2)c(C)c1,"inconclusive: 29.1 µM [cytotoxic, single point]",
COc1ccc2c(c1)CCC1C2=NN(/C(C)=C/C(C)=O)C1c1cccc(F)c1 (centres undefined),"inconclusive: 11.6 µM [cytotoxic, partial curve]",
CC(C)(O)CN(C(=O)c1ccccc1)C1CCCCC1,"inconclusive: 8.2 µM [cytotoxic, partial curve]",
O=C(O)CC(NS(=O)(=O)c1ccc(Cl)s1)c1ccccc1 (centres undefined),,inactive: 5.05%
CC(=O)c1ccc(N2C(=O)CC(N3CCN(S(=O)(=O)c4ccc(C)c(C)c4)CC3)C2=O)cc1 (centres undefined),"inconclusive: 29.1 µM [rising, partial curve, poor fit]",
CCOc1ccc(NC(=O)c2c(NC(=O)c3ccco3)sc3c2CCC(C(C)(C)C)C3)cc1 (centres undefined),"inconclusive: 13 µM [rising, single point]",
Cc1cc(C)cc(Oc2coc3c(CN4CCN(C)CC4)c(O)ccc3c2=O)c1,"inconclusive: 23.1 µM [cytotoxic, single point]",
C/C(=N\NC(=O)c1c([N+](=O)[O-])c(C)nn1C)c1ccc(NC(=O)c2ccc(C)o2)cc1,,inactive: 2.06%
O=C(NCc1ccccc1Cl)C1CCN(S(=O)(=O)c2ccc3c(c2)CCCN3C(=O)C2CCC2)CC1,"inconclusive: 20.6 µM [cytotoxic, single point]",
O=c1[nH]c(=S)[nH]c2c1C(c1cccc(C(F)(F)F)c1)OC(CCc1ccccc1)C2 (centres undefined),,inactive: -0.85%
C(=N\Nc1nncc2ccccc12)/c1ccccc1,"inconclusive: 29.1 µM [cytotoxic, single point]",
Cc1ccc(CNC(=O)CCCCn2c(=O)[nH]c3ccsc3c2=O)cc1,,inactive: -14.4%
CN(C)CCN(C)C1CN(Cc2ccc([N+](=O)[O-])cc2)S(=O)(=O)C1 (centres undefined),,inactive: -7.9%
COc1cccc(CNC(=O)c2nnn(CC(=O)Nc3cc(Cl)ccc3C)c2N)c1,,inactive: 2.29%
O=C(COC(=O)C1CC2C=CC1C2)Nc1ccc([N+](=O)[O-])cc1 (centres undefined),,inactive: -3.33%
CCOc1ccc(NC(=O)CN(c2ccc([N+](=O)[O-])cc2)S(=O)(=O)c2ccccc2)cc1,active: 7.31 µM,
CCC(=O)N1CCc2cc(Br)cc(S(=O)(=O)CCC(=O)Nc3cccc(CC)c3)c21,,inactive: 3.74%
